Here are results for 1 molecule from US20020131970A1 (Scripps Research, published 2002).

The chains behind the UniProt entries cited, without tags or fusion partners. Residues count along the entry.
UniProt P05362, residues 28-532: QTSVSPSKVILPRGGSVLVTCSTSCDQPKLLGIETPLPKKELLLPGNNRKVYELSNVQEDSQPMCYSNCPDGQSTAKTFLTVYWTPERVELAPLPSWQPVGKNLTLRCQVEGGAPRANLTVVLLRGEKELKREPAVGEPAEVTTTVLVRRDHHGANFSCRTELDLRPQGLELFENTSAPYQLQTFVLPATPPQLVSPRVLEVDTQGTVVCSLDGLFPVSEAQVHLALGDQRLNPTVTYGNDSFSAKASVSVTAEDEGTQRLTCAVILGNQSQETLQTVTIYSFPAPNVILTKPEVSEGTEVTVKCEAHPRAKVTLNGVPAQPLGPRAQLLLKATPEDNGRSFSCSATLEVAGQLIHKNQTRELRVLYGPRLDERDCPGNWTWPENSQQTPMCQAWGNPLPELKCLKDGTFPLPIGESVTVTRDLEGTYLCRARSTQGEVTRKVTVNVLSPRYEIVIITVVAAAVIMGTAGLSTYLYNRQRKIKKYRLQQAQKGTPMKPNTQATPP

Results are given in words; binding and its absence hold for the method and conditions named. Some entries that bind do so weakly or less than the wild type.

The target of the assay is recombinant ICAM-1 on the surface of transfected CHO cells (UniProt P05362). The assay can be described thus: 125I-KYG-γ3 (10-150 µg/ml) on monolayers of ICAM-1 CHO transfectants, 22 C, 45 min.

B1: variant polypeptide γ3 with Lys-Tyr-Gly at the amino terminus (KYG-γ3), 125I-labelled (peptide)
peptide: KYGNNQKIVNLKEKVAQLEA
modifications: 125I on the added tyrosine (IODO-GEN iodination)
Turning to B1, the binding entry was “binds”.
